Assay results from patent US20140057997A1, “COSMETIC COMPOSITION COMPRISING 4-(3-ETHOXY-4-HYDROXYPHENYL)-2-BUTANONE AND A LIPOPHILIC SOLVENT” (L'OREAL, priority 2011, published 2014).
The name of at least one read-out is uncertain.

Assay: Solubility test
Assay type: physicochemical
Conditions: heated to 50° C., cooled to 25° C. over 24 hours

A Degree of solubilization (solvent: 2-ethylhexyl palmitate) of 10 weight %, a Degree of solubilization (solvent: 2-octyldodecanol) of 10 weight % and a Degree of solubilization (solvent: 2-phenylethyl benzoate) greater than 20 weight % were found for `CCOc1cc(CCC(C)=O)ccc1O` [4-(3-ethoxy-4-hydroxyphenyl)-2-butanone, 4-(3-Ethoxy-4-hydroxyphenyl)-2-butanone] in this work. For the same molecule, the Degree of solubilization (solvent: capric/caprylic acid triglycerides (70/30 C8-C10, Dub MCT 7030)) was greater than 20 weight %, the Degree of solubilization (solvent: isopropyl N-lauroyl sarcosinate) was greater than 20 weight % and the Degree of solubilization (solvent: water) was less than 1 weight %.
